# In the supplement of paper PMC4604168 (melanoma cell lines):
# The list shows a part of the results. Many values rest on one well or one pass, so single values are uncertain.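 Imaging used 1,536-well plates; nuclei positive for cleaved PARP by antibody were divided by total DNA-stained nuclei to yield the apoptosis fraction. Doses for screening kept most cells viable, and cell lines differ markedly in resting and induced cleaved-PARP levels.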
# How the values were obtained:
# Experiment in all cases: cleaved PARP positive nuclei fraction relative to DMSO control; melanoma cells; higher = more apoptosis
# Conditions in all cases: library dose: low library concentration; 72 h
# MZ2-MEL = system: MZ2-MEL
# MeWo = system: MeWo
# RPMI7951 = system: RPMI7951
# RVH-421 = system: RVH-421
# SkMel28 = system: SkMel28
# SkMel2 = system: SkMel2
# SkMel30 = system: SkMel30
# SkMel5 = system: SkMel5
# UACC257 = system: UACC257
# UACC62 = system: UACC62
# WM115 = system: WM115
# WM1716 = system: WM1716
# WM1745 = system: WM1745
# WM3526 = system: WM3526
# WM3619 = system: WM3619
# WM451Lu = system: WM451Lu
Compound,cleaved PARP positive nuclei fraction (MZ2-MEL),cleaved PARP positive nuclei fraction (MeWo),cleaved PARP positive nuclei fraction (RPMI7951),cleaved PARP positive nuclei fraction (RVH-421),cleaved PARP positive nuclei fraction (SkMel28),cleaved PARP positive nuclei fraction (SkMel2),cleaved PARP positive nuclei fraction (SkMel30),cleaved PARP positive nuclei fraction (SkMel5),cleaved PARP positive nuclei fraction (UACC257),cleaved PARP positive nuclei fraction (UACC62),cleaved PARP positive nuclei fraction (WM115),cleaved PARP positive nuclei fraction (WM1716),cleaved PARP positive nuclei fraction (WM1745),cleaved PARP positive nuclei fraction (WM3526),cleaved PARP positive nuclei fraction (WM3619),cleaved PARP positive nuclei fraction (WM451Lu)
"C[C@@H](Oc1cc(-c2cnn(C3CCNCC3)c2)cnc1N)c1c(Cl)ccc(F)c1Cl [Crizotinib] + CN(C)S(=O)(=O)c1ccc2c(c1)/C(=C/c1cc3c([nH]1)CCCC3)C(=O)N2 [SU6656] (first compound 0.2 µM, partner dose 0.4 µM)",74.5%,126%,391%,59.1%,36.3%,34.3%,211%,76.6%,96.8%,42.2%,97%,73.7%,98.1%,61.5%,91.6%,166%
"CN1CCN(c2ccc3nc(-c4c(N)c5c(F)cccc5[nH]c4=O)[nH]c3c2)CC1 [Dovitinib] + Cn1cc(/C=C2\C(=O)Nc3cccnc32)c2ccccc21 [GW441756] (first compound 0.1 µM, partner dose 0.4 µM)",62.2%,35.6%,162%,119%,104%,21.1%,133%,38.8%,257%,86.1%,159%,52.2%,107%,192%,109%,57.3%
"Nc1ncn([C@H]2C[C@H](O)[C@@H](CO)O2)c(=O)n1 [decitabine] + CO[C@@H]1[C@H](N(C)C(=O)c2ccccc2)C[C@H]2O[C@]1(C)n1c3ccccc3c3c4c(c5c6ccccc6n2c5c31)C(=O)NC4 [Midostaurin] (first compound 0.1 µM, partner dose 0.08 µM)",65.5%,169%,117%,130%,301%,142%,51%,668%,100%,86%,142%,184%,108%,75.3%,112%,67.3%
"CS(=O)(=O)CCNCc1ccc(-c2ccc3ncnc(Nc4ccc(OCc5cccc(F)c5)c(Cl)c4)c3c2)o1 [lapatinib] + OCCn1cc(-c2cnc3nnn(Cc4ccc5ncccc5c4)c3n2)cn1 [PF04217903] (first compound 0.8 µM, partner dose 1 µM)",46.9%,299%,95.5%,44.5%,91.8%,64.8%,67.1%,143%,217%,74.3%,189%,89.9%,447%,63.6%,83.7%,104%
"C[C@@H](Oc1cc(-c2cnn(C3CCNCC3)c2)cnc1N)c1c(Cl)ccc(F)c1Cl [Crizotinib] + CCc1ccc(CCOc2ccc(CC3SC(=O)NC3=O)cc2)nc1 [pioglitazone] (first compound 0.2 µM, partner dose 2 µM)",89.6%,26.8%,107%,87.9%,117%,96%,81%,77.8%,186%,62.4%,74.4%,99.9%,86.5%,150%,86.2%,363%
"CC(C)C[C@H](NC(=O)[C@H](Cc1ccccc1)NC(=O)c1cnccn1)B(O)O [Bortezomib] + Cn1cc(/C=C2\C(=O)Nc3cccnc32)c2ccccc21 [GW441756] (first compound 0.001 µM, partner dose 0.4 µM)",517%,27.1%,41.7%,175%,214%,38.5%,268%,87.1%,247%,102%,42.3%,1020%,149%,245%,528%,214%
"C=C(c1ccc(C(=O)O)cc1)c1cc2c(cc1C)C(C)(C)CCC2(C)C [Bexarotene] + CC(C)CCN1c2nc(Nc3cc(F)c(O)c(F)c3)ncc2N(C)C(=O)C1C [BID1870] (first compound 2 µM, partner dose 0.2 µM)",164%,150%,160%,68.6%,218%,81.7%,181%,76.8%,137%,162%,197%,396%,103%,91%,166%,132%
"CS(=O)(=O)CCNCc1ccc(-c2ccc3ncnc(Nc4ccc(OCc5cccc(F)c5)c(Cl)c4)c3c2)o1 [lapatinib] + Oc1nc(-c2ccc(C(F)(F)F)cc2)nc2c1CSCC2 [XAV939] (first compound 0.8 µM, partner dose 2 µM)",36.5%,125%,116%,142%,67.7%,42.6%,63.1%,89.7%,63%,60%,82.1%,81.8%,97.1%,77%,108%,63%
"CS(=O)(=O)CCNCc1ccc(-c2ccc3ncnc(Nc4ccc(OCc5cccc(F)c5)c(Cl)c4)c3c2)o1 [lapatinib] + CC(C)(C)c1cnc(CSc2cnc(NC(=O)C3CCNCC3)s2)o1 [SNS-032] (first compound 0.8 µM, partner dose 0.01 µM)",94.8%,136%,138%,150%,58.8%,114%,47.3%,60.6%,116%,149%,141%,111%,95.8%,116%,53.7%,109%
"C=C(c1ccc(C(=O)O)cc1)c1cc2c(cc1C)C(C)(C)CCC2(C)C [Bexarotene] + CN(C)S(=O)(=O)c1ccc2c(c1)/C(=C/c1cc3c([nH]1)CCCC3)C(=O)N2 [SU6656] (first compound 2 µM, partner dose 0.4 µM)",57.5%,104%,69%,87.2%,25.6%,87.1%,60%,69.1%,57.8%,9.92%,90.3%,7.97%,89.5%,631%,98.2%,144%
"O=C(O)c1ccc2c(c1)nc(Nc1cccc(Cl)c1)c1ccncc12 + Oc1cc(-c2nc(-c3ccccc3)[nH]c2-c2ccncc2)ccc1Cl [L779450] (first compound 0.4 µM, partner dose 0.2 µM)",145%,92.5%,72.3%,140%,123%,231%,450%,73.2%,323%,345%,253%,74.3%,93.3%,118%,101%,120%
"Cc1cc(Nc2cc(N3CCN(C)CC3)nc(/C=C/c3ccccc3)n2)n[nH]1 + NC(=O)Nc1cc(-c2cccc(F)c2)sc1C(=O)N[C@H]1CCCNC1 [AZD7762] (first compound 0.04 µM, partner dose 0.02 µM)",144%,54.5%,61%,129%,53%,87.5%,117%,44%,53.4%,164%,351%,37.8%,96.4%,65.1%,155%,61.5%
"CS(=O)(=O)CCNCc1ccc(-c2ccc3ncnc(Nc4ccc(OCc5cccc(F)c5)c(Cl)c4)c3c2)o1 [lapatinib] + CC(C)CCN1c2nc(Nc3cc(F)c(O)c(F)c3)ncc2N(C)C(=O)C1C [BID1870] (first compound 0.8 µM, partner dose 0.2 µM)",117%,650%,52.4%,138%,221%,122%,53.8%,88.8%,340%,92%,164%,44.1%,96.5%,88.5%,109%,69.3%
"CN1CCN(c2ccc3nc(-c4c(N)c5c(F)cccc5[nH]c4=O)[nH]c3c2)CC1 [Dovitinib] + CCc1ccc(CCOc2ccc(CC3SC(=O)NC3=O)cc2)nc1 [pioglitazone] (first compound 0.1 µM, partner dose 2 µM)",194%,251%,59.6%,99.3%,89%,20.4%,114%,88.2%,215%,112%,14.2%,181%,108%,81.4%,69.8%,145%
"C=C(c1ccc(C(=O)O)cc1)c1cc2c(cc1C)C(C)(C)CCC2(C)C [Bexarotene] + CO[C@@H]1[C@H](N(C)C(=O)c2ccccc2)C[C@H]2O[C@]1(C)n1c3ccccc3c3c4c(c5c6ccccc6n2c5c31)C(=O)NC4 [Midostaurin] (first compound 2 µM, partner dose 0.08 µM)",171%,255%,137%,68.2%,86.3%,121%,71.6%,154%,88.2%,93.2%,22%,206%,103%,363%,113%,87.1%
"CNC(=O)c1cc(Oc2ccc(NC(=O)Nc3ccc(Cl)c(C(F)(F)F)c3)cc2)ccn1 [sorafenib] + O=C(Nc1ccccc1)c1cc([N+](=O)[O-])ccc1Cl [GW9662] (first compound 0.4 µM, partner dose 2 µM)",48.6%,102%,67%,150%,22.8%,107%,193%,229%,20.4%,138%,71.9%,74.8%,189%,59.3%,88.3%,69.7%
"CCCS(=O)(=O)Nc1ccc(F)c(C(=O)c2c[nH]c3ncc(Cl)cc23)c1F + CCN(CC)CCCCNc1ncc2cc(-c3cc(OC)cc(OC)c3)c(NC(=O)NC(C)(C)C)nc2n1 [PD173074] (first compound 0.08 µM, partner dose 0.1 µM)",61.6%,67.4%,56%,17.1%,101%,64.5%,257%,125%,170%,280%,117%,165%,89.6%,89.9%,80.8%,39.1%
"CCCS(=O)(=O)Nc1ccc(F)c(C(=O)c2c[nH]c3ncc(Cl)cc23)c1F + Cc1cc([N+](=O)[O-])ccc1NS(=O)(=O)c1cc(Cl)ccc1Cl [FH535] (first compound 0.08 µM, partner dose 1 µM)",79.2%,23.7%,194%,44.7%,301%,77.6%,85.6%,80.2%,57.1%,397%,174%,46.3%,97.8%,110%,128%,35.4%
"O=C(O)c1ccc2c(c1)nc(Nc1cccc(Cl)c1)c1ccncc12 + CN(NC(=O)CC(=O)NN(C)C(=S)c1ccccc1)C(=S)c1ccccc1 [STA4783] (first compound 0.4 µM, partner dose 0.006 µM)",55%,133%,87.4%,97.1%,66.5%,64.1%,69.5%,36.6%,74.3%,67.4%,70.8%,179%,149%,61.3%,118%,27.8%

# Another view of part of the listing above.
Compound	cleaved PARP positive nuclei fraction (MZ2-MEL)	cleaved PARP positive nuclei fraction (MeWo)	cleaved PARP positive nuclei fraction (RPMI7951)	cleaved PARP positive nuclei fraction (RVH-421)	cleaved PARP positive nuclei fraction (SkMel28)	cleaved PARP positive nuclei fraction (SkMel2)	cleaved PARP positive nuclei fraction (SkMel30)	cleaved PARP positive nuclei fraction (SkMel5)	cleaved PARP positive nuclei fraction (UACC257)	cleaved PARP positive nuclei fraction (UACC62)	cleaved PARP positive nuclei fraction (WM115)	cleaved PARP positive nuclei fraction (WM1716)	cleaved PARP positive nuclei fraction (WM1745)	cleaved PARP positive nuclei fraction (WM3526)	cleaved PARP positive nuclei fraction (WM3619)	cleaved PARP positive nuclei fraction (WM451Lu)
C=C(c1ccc(C(=O)O)cc1)c1cc2c(cc1C)C(C)(C)CCC2(C)C [Bexarotene] + CC(C)CCN1c2nc(Nc3cc(F)c(O)c(F)c3)ncc2N(C)C(=O)C1C [BID1870] (first compound 2 µM, partner dose 0.2 µM)	164%	150%	160%	68.6%	218%	81.7%	181%	76.8%	137%	162%	197%	396%	103%	91%	166%	132%
CS(=O)(=O)CCNCc1ccc(-c2ccc3ncnc(Nc4ccc(OCc5cccc(F)c5)c(Cl)c4)c3c2)o1 [lapatinib] + Oc1nc(-c2ccc(C(F)(F)F)cc2)nc2c1CSCC2 [XAV939] (first compound 0.8 µM, partner dose 2 µM)	36.5%	125%	116%	142%	67.7%	42.6%	63.1%	89.7%	63%	60%	82.1%	81.8%	97.1%	77%	108%	63%
